Measurements taken from US20240141036A1.
No constants are given. Whether binding was seen depends on the method and setting. Some entries that bind do so weakly or less than the wild type.

B1: GTC210-01 clone (Preparation Example 1) (antibody, mouse IgG2a, V domains shown)
VH: EVQLLESGGGLVQPGGSLRLSCAASGFTFSGYDMSWVRQAPGKGLEWVSLIYPDSGNKYYADSVKGRFTISRDNSKNTLYLQMNSLRAEDTAVYYCARDAGLSWAGAFDYWGQGTLVTVSS
VL: QSVLTQPPSASGTPGQRVTISCSGSSSNIGSNYVTWYQQLPGTAPKLLIYSDSHRPSGVPDRFSGSKSGTSASLAISGLQSEDEADYYCGSWDYSLSAYVFGGGTKLTVLR
B2: GTC210-03 clone (Preparation Example 3) (antibody, mouse IgG2a, V domains shown)
VH: EVQLLESGGGLVQPGGSLRLSCAASGFTFSSYDMSWVRQAPGKGLEWVSGISPDGSNIYYADSVKGRFTISRDNSKNTLYLQMNSLRAEDTAVYYCAKVGLRCRYEACSYAYGMDVWGQGTLVTVSS
VL: QSVLTQPPSASGTPGQRVTISCSGSSSNIGSNYVSWYQQLPGTAPKLLIYSDSHRPSGVPDRFSGSKSGTSASLAISGLRSEDEADYYCATWDSSLNGYVFGGGTKLTVLR
B3: GTC110-02 clone (Preparation Example 6) (antibody, mouse IgG2a, V domains shown)
VH: EVQLLESGGGLVQPGGSLRLSCAASGFTFSDYYMSWVRQAPGKGLEWVSGISHDSGSKYYADSVKGRFTISRDNSKNTLYLQMNSLRAEDTAVYYCARHWTTFDYWGQGTLVTVSS
VL: QSVLTQPPSASGTPGQRVTISCSGSSSNIGSNNVTWYQQLPGTAPKLLIYANSNRPSGVPDRFSGSKSGTSASLAISGLRSEDEADYYCGAWDYSLSAYVFGGGTKLTVLR
B4: GTC210-02 clone (Preparation Example 2) (antibody, mouse IgG2a, V domains shown)
VH: EVQLLESGGGLVQPGGSLRLSCAASGFTFSNYYMSWVRQAPGKGLEWVSGISPGDSSTYYADSVKGRFTISRDNSKNTLYLQMNSLRAEDTAVYYCAKGLYSNPNEPFDYWGQGTLVTVSS
VL: QSVLTQPPSASGTPGQRVTISCTGSSSNIGSNYVSWYQQLPGTAPKLLIYDDSQRPSGVPDRFSGSKSGTSASLAISGLRSEDEADYYCGTWDYSLNGYVFGGGTKLTVLR
B5: GTC210-04 clone (Preparation Example 4) (antibody, mouse IgG2a, V domains shown)
VH: EVQLLESGGGLVQPGGSLRLSCAASGFTFSNYDMSWVRQAPGKGLEWVSSISPSSGSIYYADSVKGRFTISRDNSKNTLYLQMNSLRAEDTAVYYCAKDLDAFWRPSFDYWGQGTLVTVSS
VL: QSVLTQPPSASGTPGQRVTISCTGSSSNIGNNNVNWYQQLPGTAPKLLIYSDSHRPSGVPDRFSGSKSGTSASLAISGLRSEDEADYYCGSWDDSLSAYVFGGGTKLTVLR
B6: GTC110-03 clone (Preparation Example 7) (antibody, mouse IgG2a, V domains shown)
VH: EVQLLESGGGLVQPGGSLRLSCAASGFTFSNYAMSWVRQAPGKGLEWVSAIYPGGGSIYYADSVKGRFTISRDNSKNTLYLQMNSLRAEDTAVYYCARDILPCPWGRCYYDYAMDVWGQGTLVTVSS
VL: QSVLTQPPSASGTPGQRVTISCSDSSSNIGSNTVSWYQQLPGTAPKLLIYADNNRPSGVPDRFSGSKSGTSASLAISGLRSEDEADYYCGTWDYSLSGYVFGGGTKLTVLR

molecular target: T1, Lrig-1 protein expressed on the surface of L cells (human) (UniProt Q96JA1); test: FACS on L cells stably expressing Lrig-1, eFlour 670-conjugated secondary antibody
T1 sequence: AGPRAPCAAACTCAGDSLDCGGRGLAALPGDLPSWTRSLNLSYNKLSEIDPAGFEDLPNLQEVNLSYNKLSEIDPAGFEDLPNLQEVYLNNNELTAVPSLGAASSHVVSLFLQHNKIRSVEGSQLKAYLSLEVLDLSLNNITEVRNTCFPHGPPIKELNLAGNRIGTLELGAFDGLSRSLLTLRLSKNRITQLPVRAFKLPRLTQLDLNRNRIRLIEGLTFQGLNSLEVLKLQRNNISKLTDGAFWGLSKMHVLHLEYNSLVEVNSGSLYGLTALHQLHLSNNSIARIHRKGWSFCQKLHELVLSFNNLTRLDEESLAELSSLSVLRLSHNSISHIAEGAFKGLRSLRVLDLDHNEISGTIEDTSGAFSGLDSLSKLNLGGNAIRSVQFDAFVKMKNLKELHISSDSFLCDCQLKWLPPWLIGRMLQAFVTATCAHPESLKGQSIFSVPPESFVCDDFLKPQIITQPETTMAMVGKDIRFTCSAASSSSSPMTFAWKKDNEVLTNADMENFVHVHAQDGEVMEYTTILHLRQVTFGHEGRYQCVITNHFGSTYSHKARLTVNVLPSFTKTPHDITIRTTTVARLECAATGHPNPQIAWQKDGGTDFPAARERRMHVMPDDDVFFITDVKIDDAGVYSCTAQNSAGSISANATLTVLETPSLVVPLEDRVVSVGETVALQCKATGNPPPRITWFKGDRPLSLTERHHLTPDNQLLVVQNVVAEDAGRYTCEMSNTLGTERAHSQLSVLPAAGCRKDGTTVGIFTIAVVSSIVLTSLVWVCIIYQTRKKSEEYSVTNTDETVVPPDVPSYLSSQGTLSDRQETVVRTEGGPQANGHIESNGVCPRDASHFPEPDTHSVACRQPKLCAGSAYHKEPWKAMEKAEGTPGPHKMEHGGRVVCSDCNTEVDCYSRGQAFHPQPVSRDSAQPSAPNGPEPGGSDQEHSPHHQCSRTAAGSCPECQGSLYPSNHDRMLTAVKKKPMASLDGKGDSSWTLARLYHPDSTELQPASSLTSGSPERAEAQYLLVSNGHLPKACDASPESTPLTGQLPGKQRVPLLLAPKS

binding, binds:
B1, B2, B3, B4, B5, B6
